In the supplement of paper PMC8256030 one finds mCherry and percent effect data, which are given here for six compounds.

Experiment [1] concerns SARS-CoV-2 -1 PRF reporter mCherry-FSE-GFP(-1). Put plainly: mCherry (red) intensity as percent of control; higher = higher upstream reporter expression. The note with it: 10 µM; 24 h; HEK293T.
For experiment [2] the test system is unchanged. Put plainly: percent effect, decrease of GFP/mCherry ratio (-1 PRF reporter) relative to controls; higher = stronger frameshift inhibition. The note with it: 10 µM; 24 h; HEK293T.

Values joined by “and” are separate entries in the source; they are usually repeats but may differ in a detail not shown here. Equal values may be shown once. The list shows a part of the results. Repeats in this data set agree poorly, so a single value says little.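 HEK293T cells were given each compound shortly before transfection with a reporter in which red mCherry is followed by the SARS-CoV-2 frameshift element and then GFP in the −1 frame, so GFP appears only after frameshifting.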

For `Clc1cccc(Cl)c1NC1=NCCN1` [clonidine], the mCherry in experiment [1] came out at 97.7%. Besides, the percent effect in experiment [2] was -2.02%.

For `CCN(CC)CCOCCOC(=O)C1(c2ccccc2)CCCC1` [pentoxyverine], in experiment [1], the mCherry worked out at 88.2%. Also, the percent effect in experiment [2] was -5.34%.

Regarding `CC(=O)N(c1onc(C)c1C)S(=O)(=O)c1ccc(N)cc1`, in experiment [1], the mCherry stood at 105%. Moreover, in experiment [2], the percent effect came out at 1.88%.

In turn, `CCCCC(CC)COC(=O)CC(C(=O)OCC(CC)CCCC)S(=O)(=O)O` (configuration not stated) [docusate sodium] showed a mCherry in experiment [1] of 14.2%. Moreover, the percent effect in experiment [2] is -14%.

With `CCCC(CCC)C(=O)O` [valproic acid], the mCherry in experiment [1] is 102% and 104%. Besides, in experiment [2], the percent effect is 0.623% and -8.71%.

`Nc1ccn([C@H]2CO[C@@H](CO)S2)c(=O)n1` [apricitabine] yielded a mCherry in experiment [1] of 88.8%. Besides, in experiment [2], the percent effect is -4.59%.
